Test results published in article PMC12040169 (PLOS Biology, 2025).
Some of the results follow.

tested on: T1, CTL2-GFP (C. trachomatis L2/434/Bu, GFP-expressing); set-up: species or system HeLa; Intracellular C. trachomatis growth in HeLa cells, bulk GFP fluorescence relative to DMSO; settings: bulk GFP, single well; 28.5 h, 10 µM; inhibitor
T1 construct: L2/434/Bu, GFP-expressing

| SMILES | % of control remaining |
| --- | --- |
| COc1cccc(CN2CCC3(CCCNC3=O)CC2)c1 [CBK284824] | 112.461% |
| CC(C)C(=O)Nc1cc2cccnc2c(-c2ccc3c(c2)CCO3)n1 [CBK081260] | 116.471% |
| O=C(CC(C(=O)O)N1CCOCC1)Nc1ccccc1 (stereo not drawn) [CBK267008] | 119.231% |
| O=C(Nc1ccc(N2CCNCC2)nc1)c1cccs1 [CBK029430T] | 144.521% |
| O=C(Cc1c[nH]c2ccccc12)Nc1cncc(OC2CCNCC2)n1 [CBK028441T] | 100% |
| Cc1nccn1CCNC(=O)CCc1cn(C)c2ccccc12 [CBK281962] | 120.389% |
| COc1nc(-c2cccnc2)cn2ccnc12 [CBK093490] | 145.996% |
| CC(=O)NCCNc1ccc(C(=O)O)cc1[N+](=O)[O-] [CBK264184] | 134.241% |
| OC1(c2cccnc2F)CCN(Cc2ccc(Cl)cc2)CC1 [CBK284368] | 94.9825% |
| Cc1ccc(C(=O)O)cc1NC(=O)C(=O)NCC(c1ccccc1)N1CCN(C)CC1 (stereo not drawn) [CBK286864] | 139.345% |
| O=C(CCCc1nc(-c2ccc(Cl)cc2)no1)NCc1cccnc1 [CBK269415] | 122.111% |
| CCOC(=O)c1c(C)nc2n(CCN3CCCCC3)c3ccccc3n12 [CBK278238C] | 100% |
| O=C(NCCN1CCOCC1)C1CCN(c2nc3c(-c4ccccc4F)csc3c(=O)[nH]2)CC1 [CBK215442] | 133.017% |
| Cn1nc(-c2ccc(S(=O)(=O)n3cc(C#N)c(N)n3)s2)cc1C(F)(F)F [CBK067237] | 123.861% |
| OCCN(CCO)CC1CC2C=CC1C2 (stereo not drawn) [CBK261874] | 120.818% |
| CN(C)CC(C)(C)CN1C2CCC1CC(O)(c1ccccc1F)C2 (stereo not drawn) [CBK282648] | 151.361% |
| O=C(Cn1c(-c2cccs2)cc2cccnc21)N1CCOCC1 [CBK282452] | 125.457% |
| Cc1cccc(=O)n1CCCn1cc(C2CCCNC2)nn1 (stereo not drawn) [CBK306946] | 138.385% |
| O=C(c1ccncc1)C12CN3CN(CN(C3)C1)C2 [CBK261451] | 100% |
| COC(=O)c1c(-c2ccc(F)cc2)csc1NC(=O)CSc1ncnc2sc3c(c12)CCC3 [CBK265976] | 121.269% |
| CCN1CC(C(=O)N2CCN(C)CC2c2ccccc2)CC1=O (stereo not drawn) [CBK282026] | 129.603% |

Sorted by count of non-hydrogen atoms (smallest number first): part of the list above

| SMILES | % of control remaining |
| --- | --- |
| CCN1CC(C(=O)N2CCN(C)CC2c2ccccc2)CC1=O (stereo not drawn) [CBK282026] | 129.603% |
| Cn1nc(-c2ccc(S(=O)(=O)n3cc(C#N)c(N)n3)s2)cc1C(F)(F)F [CBK067237] | 123.861% |
| O=C(NCCN1CCOCC1)C1CCN(c2nc3c(-c4ccccc4F)csc3c(=O)[nH]2)CC1 [CBK215442] | 133.017% |

Remaining list, next part:

| SMILES | % of control remaining |
| --- | --- |
| CC(C)N(CCOc1nccnc1-c1ccsc1)C(C)C [CBK106777] | 83.2421% |
| COc1ccc(CCC2CCN(C)CC2)c(O)c1 [CBK283668] | 149.604% |
| CCn1cc(C2CN(S(=O)(=O)c3cccc(C(C)C)c3)CCO2)cn1 (stereo not drawn) [CBK304227] | 103.06% |
| O=C(O)CCC1NC(=O)N(C2CCCCC2)C1=O (stereo not drawn) [CBK287046] | 149.796% |
| CCOC(=O)Nc1ccsc1C(=O)OC [CBK027880] | 137.935% |
| Cc1ccc(C(=O)n2c(=S)nc3ccccn32)cc1 [CBK025729] | 157.712% |
| COCC(=O)N1C2CCC(C2)[C@@H]1COc1ccc(F)cc1 (stereo partly drawn) [CBK284603] | 110.004% |
| CCOC(=O)c1ccccc1NC(=O)n1ccc2c(N3CCNCC3)cccc21 [CBK003731C] | 34.905% |
| Cc1cc(C)n(CCC(=O)N2CCCC2c2nc3ccccc3[nH]2)n1 (stereo not drawn) [CBK283664] | 92.1895% |
| C[C@H](c1ccccc1)n1c(=O)[nH]c2ncc(-c3cncc4ccccc34)nc21 [CBK064709] | 130.169% |
| O=C1C2N=NN(Cc3ccccc3)C2C(=O)N1C1CCCCC1 (stereo not drawn) [CBK067389] | 106.882% |
| Cc1ccnn1CCNC(=O)C(C)Cc1cccs1 (stereo not drawn) [CBK281633] | 101.166% |
| Cn1nc(C2CC2)cc1NS(C)(=O)=O [CBK038148] | 130.438% |
| Cc1cc(NC(=O)CCn2cc(Br)cn2)no1 [CBK304326] | 126.187% |
| O=C(c1ccccc1F)N1C[C@H](c2ccsc2)[C@H]2CN(Cc3ccsc3)CC[C@H]21 [CBK285661] | 111.105% |
| Cc1nn(CC(=O)NC(C)c2cccnc2)c(C)c1C (stereo not drawn) [CBK281489] | 128.556% |
| COc1ccc(C(CNC(=O)C(=O)Nc2ccc(C(=O)O)cc2)N(C)C)cc1 (stereo not drawn) [CBK286724] | 70.5573% |
| Cc1cc(COc2cc(N3CCCC3)ncn2)no1 [CBK115898] | 100% |
| O=C(Nc1nnc(-c2ccccn2)o1)c1cc(Cl)ccc1Cl [CBK287429] | 107.406% |
| Cc1[nH]c2ccc(F)cc2c1-c1cn2c3c(nnc2n1)CCCC3 [CBK283172] | 140.858% |
| O=C(Nc1ccccc1)[C@H]1O[C@H](CCN2CCN(c3ccccn3)CC2)CC[C@@H]1O [CBK288726] | 123.772% |

| SMILES | % of control remaining |
| --- | --- |
| CCOC(=O)c1cnc2c(C)c(Cl)ccc2c1NCCN(C)C [CBK265965] | 100% |
| COC(=O)C(C)CSc1ccc(C(C)(C)C)cc1 (stereo not drawn) [CBK010499] | 109.04% |
| Cc1ccc2cc3c(nc2c1)OCC(=O)N(Cc1ccco1)C3 [CBK283539] | 87.8222% |
| CC(=O)N1CCC(N2CC[C@H](c3nnc(-c4ccco4)o3)C2)CC1 [CBK289395] | 121.656% |
| O=C(Nc1ccn(C23CC4CC(CC(C4)C2)C3)n1)c1ccco1 [CBK288023] | 112.387% |
| Cc1ccc(C2(O)CCN(CCNC(=O)C3CC3C)CC2)cc1 (stereo not drawn) [CBK282607] | 120.709% |
| Cc1c2c(n(-c3ccccc3)[n+]1[O-])NC1(CCC1)[C@@H]1C[C@@H](O)[C@@H](O)[C@H]21 [CBK303253] | 117.374% |
| Cc1cccn2cc(-c3ccc4c(c3)CCN4S(C)(=O)=O)cc12 [CBK285226] | 142.182% |
| COc1ccccc1-c1cnc(N)c(NCc2ccccc2)n1 [CBK063357] | 166.776% |
| Cc1nc(-c2ccc(CNC(=O)c3cc(=O)[nH]c4ccccc34)o2)cs1 [CBK238261] | 146.068% |
| CNC(=O)CN1CCC[C@@H]2NC(=O)COc3ccccc3C(=O)N[C@@H]3CCOC[C@@H]3C/C=C/C[C@@H]21 [CBK292040] | 175.537% |
| c1ccc(-c2cc(CC3(NCc4cccnc4)COC3)no2)nc1 [CBK289238] | 155.619% |
| CN(C)C(=O)Cn1nc(C(c2ccccc2)c2ccccc2)oc1=O [CBK283747] | 109.32% |
| Cc1cc(C(=O)N2CCC(C(=O)c3ccnn3C)CC2)sc1C [CBK284428] | 133.167% |
| Cn1c(C(=O)N2CCc3ccccc3C2)cc2ccccc21 [CBK200337] | 134.603% |
| CCN1CCC(NC(=O)CSc2nc3ccccc3n2CC(C)C)CC1 [CBK304995] | 146.602% |
| CCc1nc2ccc(C(=O)N3CCN(C)CC3)cn2c1N(C)Cc1ccc(NC(C)=O)cc1 [CBK145603] | 108.506% |
| O=c1c2ccccc2nc2c3ccccc3c(NCc3ccccn3)nn12 [CBK265964] | 100% |
| c1ccc2c(c1)nc(-c1cscn1)n2Cc1ccc(-c2nnn[nH]2)cc1 [CBK266979] | 155.329% |
| O=C(Cn1c(C(F)(F)F)nc2ccccc21)NCCN1CCCC1 [CBK267150] | 117.043% |
| Cc1ccc(S(=O)(=O)N(C)CC(=O)NCc2nc(-c3ccccc3)no2)cc1 [CBK268524] | 152.616% |

| SMILES | % of control remaining |
| --- | --- |
| COc1ccc(C(=O)COC(=O)c2cc(-c3ccc(Cl)cc3)nc3ccc(C)cc23)cc1[N+](=O)[O-] [CBK264072] | 130.205% |
| Cc1cc(S(=O)(=O)NCC(C)n2nc(C)c(C)c2C)ccc1F (stereo not drawn) [CBK282010] | 139.899% |
| CC1CN(Cc2cccc(CNc3ncccc3C#N)c2)CCO1 (stereo not drawn) [CBK303994] | 109.525% |
| CC(C)c1cc(C(=O)N2C[C@H](C)N(Cc3ccco3)C[C@@H]2C)on1 [CBK283053] | 105.349% |
| CC(C)Oc1ncc(C(=O)NCCCC(=O)O)cc1Cl [CBK305192] | 141.267% |
| O=C(CN1CCN(CCN2C(=O)c3cccc4cccc(c34)C2=O)CC1)c1ccc(Cl)cc1 [CBK265363] | 100% |
| c1ccc2c(c1)nc1n2CCN1CCN1CCCCC1 [CBK278283C] | 108.616% |
| CN(Cc1cnn(C)c1)c1nccc(N2CCN[C@H]3CS(=O)(=O)C[C@H]32)n1 [CBK306964] | 146.502% |
| COc1cccc2cc(C(=O)NCCc3ccc(O)cc3)oc12 [CBK149802] | 109.959% |
| O=S(=O)(NCC1COc2ccccc2O1)c1cc(Cl)sc1Cl (stereo not drawn) [CBK057394] | 121.864% |
| N#Cc1ccc(CN2C(=O)c3ccccc3C2=O)cc1 [CBK029022] | 114.325% |
| CCCn1cnc2cc(NC(=O)c3ccc(=O)n(CC(=O)N(C)c4ccccc4)c3)ccc21 [CBK286026] | 87.6739% |
| NC(=O)CC1C(=O)N(c2ccc(F)cc2)C(=S)N1NC(=O)CCc1ccccc1 (stereo not drawn) [CBK268978A] | 135.285% |
| Cc1noc(CN2CCNC(=O)C2c2ccccc2C(F)(F)F)n1 (stereo not drawn) [CBK306405] | 123.074% |
| CC(C)N(C(=O)Cn1nc(-c2cccs2)ccc1=O)C(C)C [CBK282638] | 125.499% |
| O=C(CNS(=O)(=O)c1ccc(Br)cc1)N1CCN(Cc2ccc3c(c2)OCO3)CC1 [CBK074358] | 108.993% |
| Cc1cc(C(=O)NC2CCCC2)n[nH]1 [CBK200240] | 105.717% |
| Nc1ncc(-c2ccc(C(=O)N3CCOCC3)cc2)nc1-c1ccc(C[C@H](N)C(=O)O)cc1 [CBK126364] | 124.429% |

Compounds shown so far that contain a Cl atom (eight):

| SMILES | % of control remaining |
| --- | --- |
| OC1(c2cccnc2F)CCN(Cc2ccc(Cl)cc2)CC1 [CBK284368] | 94.9825% |
| O=C(CCCc1nc(-c2ccc(Cl)cc2)no1)NCc1cccnc1 [CBK269415] | 122.111% |
| O=C(Nc1nnc(-c2ccccn2)o1)c1cc(Cl)ccc1Cl [CBK287429] | 107.406% |
| CCOC(=O)c1cnc2c(C)c(Cl)ccc2c1NCCN(C)C [CBK265965] | 100% |
| COc1ccc(C(=O)COC(=O)c2cc(-c3ccc(Cl)cc3)nc3ccc(C)cc23)cc1[N+](=O)[O-] [CBK264072] | 130.205% |
| CC(C)Oc1ncc(C(=O)NCCCC(=O)O)cc1Cl [CBK305192] | 141.267% |
| O=C(CN1CCN(CCN2C(=O)c3cccc4cccc(c34)C2=O)CC1)c1ccc(Cl)cc1 [CBK265363] | 100% |
| O=S(=O)(NCC1COc2ccccc2O1)c1cc(Cl)sc1Cl (stereo not drawn) [CBK057394] | 121.864% |
